Measurements as given in article PMC5778047.
Results are given in words; binding and its absence hold for the method and conditions named. In cells and extracts the contact can be indirect. Some entries that bind do so weakly or less than the wild type.

By UniProt entry, the sequences of proteins in these tests, tags left out. Residues count along the entry.
UniProt P11717, residues 41-2491: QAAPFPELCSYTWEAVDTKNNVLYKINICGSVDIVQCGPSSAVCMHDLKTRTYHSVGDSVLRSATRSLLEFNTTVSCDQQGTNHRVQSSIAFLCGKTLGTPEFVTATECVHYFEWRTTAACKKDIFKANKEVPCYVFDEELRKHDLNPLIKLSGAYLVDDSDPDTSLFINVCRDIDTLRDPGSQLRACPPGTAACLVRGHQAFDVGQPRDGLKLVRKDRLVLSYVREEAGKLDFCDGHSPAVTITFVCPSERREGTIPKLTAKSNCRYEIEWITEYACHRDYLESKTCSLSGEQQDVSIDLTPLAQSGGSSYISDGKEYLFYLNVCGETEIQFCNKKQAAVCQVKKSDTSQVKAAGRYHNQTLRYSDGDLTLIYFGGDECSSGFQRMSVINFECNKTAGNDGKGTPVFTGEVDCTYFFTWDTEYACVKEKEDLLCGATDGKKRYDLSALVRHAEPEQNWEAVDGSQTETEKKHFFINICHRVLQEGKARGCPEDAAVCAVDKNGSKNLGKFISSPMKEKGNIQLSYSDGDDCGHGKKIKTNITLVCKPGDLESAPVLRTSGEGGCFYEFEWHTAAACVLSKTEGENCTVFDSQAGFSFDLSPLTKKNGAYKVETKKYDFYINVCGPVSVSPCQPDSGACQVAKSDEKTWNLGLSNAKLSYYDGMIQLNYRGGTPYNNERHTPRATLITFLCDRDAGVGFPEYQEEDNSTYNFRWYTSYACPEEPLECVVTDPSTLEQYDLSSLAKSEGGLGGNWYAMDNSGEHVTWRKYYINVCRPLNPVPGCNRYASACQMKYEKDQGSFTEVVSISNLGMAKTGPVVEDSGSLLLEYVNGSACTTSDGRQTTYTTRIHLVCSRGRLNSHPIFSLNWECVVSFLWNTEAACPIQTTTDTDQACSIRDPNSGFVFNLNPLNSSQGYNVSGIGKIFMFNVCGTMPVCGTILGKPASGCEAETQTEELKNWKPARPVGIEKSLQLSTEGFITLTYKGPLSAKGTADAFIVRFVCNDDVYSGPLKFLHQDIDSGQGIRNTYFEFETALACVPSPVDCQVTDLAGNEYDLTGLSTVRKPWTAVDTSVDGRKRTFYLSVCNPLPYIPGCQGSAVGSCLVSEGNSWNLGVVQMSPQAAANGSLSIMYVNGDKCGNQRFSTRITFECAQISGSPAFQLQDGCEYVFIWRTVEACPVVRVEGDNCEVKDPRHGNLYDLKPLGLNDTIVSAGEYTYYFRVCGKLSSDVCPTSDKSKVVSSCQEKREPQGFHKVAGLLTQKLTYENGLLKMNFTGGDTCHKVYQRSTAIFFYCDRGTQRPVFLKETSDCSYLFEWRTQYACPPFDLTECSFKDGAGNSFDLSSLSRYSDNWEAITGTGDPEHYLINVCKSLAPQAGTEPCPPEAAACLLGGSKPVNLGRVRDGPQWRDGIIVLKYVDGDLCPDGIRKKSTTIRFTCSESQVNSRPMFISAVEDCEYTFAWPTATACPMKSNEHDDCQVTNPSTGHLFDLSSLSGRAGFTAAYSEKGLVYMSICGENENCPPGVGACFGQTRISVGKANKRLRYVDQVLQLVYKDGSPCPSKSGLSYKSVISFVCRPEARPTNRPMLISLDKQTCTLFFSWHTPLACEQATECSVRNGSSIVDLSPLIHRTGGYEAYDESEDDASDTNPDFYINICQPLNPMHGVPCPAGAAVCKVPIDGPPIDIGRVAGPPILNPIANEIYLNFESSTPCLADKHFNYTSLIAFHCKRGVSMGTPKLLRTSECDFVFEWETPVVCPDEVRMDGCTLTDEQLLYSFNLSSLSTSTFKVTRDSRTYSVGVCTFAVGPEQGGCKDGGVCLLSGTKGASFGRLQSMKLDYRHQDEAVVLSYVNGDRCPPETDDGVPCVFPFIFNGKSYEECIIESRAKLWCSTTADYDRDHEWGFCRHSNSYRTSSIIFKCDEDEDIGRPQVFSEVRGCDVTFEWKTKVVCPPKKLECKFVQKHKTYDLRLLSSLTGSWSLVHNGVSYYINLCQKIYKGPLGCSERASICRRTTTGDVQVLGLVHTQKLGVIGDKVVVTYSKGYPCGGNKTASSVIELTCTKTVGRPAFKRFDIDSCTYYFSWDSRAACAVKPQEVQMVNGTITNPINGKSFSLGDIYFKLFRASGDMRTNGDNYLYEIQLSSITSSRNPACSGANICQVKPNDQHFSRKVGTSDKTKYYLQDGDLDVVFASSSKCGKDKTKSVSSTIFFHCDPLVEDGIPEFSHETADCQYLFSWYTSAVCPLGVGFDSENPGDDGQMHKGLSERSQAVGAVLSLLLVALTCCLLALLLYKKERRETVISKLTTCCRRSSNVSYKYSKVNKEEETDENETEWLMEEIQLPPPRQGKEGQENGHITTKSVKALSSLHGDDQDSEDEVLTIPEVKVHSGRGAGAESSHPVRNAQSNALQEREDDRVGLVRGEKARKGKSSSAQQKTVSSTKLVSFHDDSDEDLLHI
UniProt Q9UJY4: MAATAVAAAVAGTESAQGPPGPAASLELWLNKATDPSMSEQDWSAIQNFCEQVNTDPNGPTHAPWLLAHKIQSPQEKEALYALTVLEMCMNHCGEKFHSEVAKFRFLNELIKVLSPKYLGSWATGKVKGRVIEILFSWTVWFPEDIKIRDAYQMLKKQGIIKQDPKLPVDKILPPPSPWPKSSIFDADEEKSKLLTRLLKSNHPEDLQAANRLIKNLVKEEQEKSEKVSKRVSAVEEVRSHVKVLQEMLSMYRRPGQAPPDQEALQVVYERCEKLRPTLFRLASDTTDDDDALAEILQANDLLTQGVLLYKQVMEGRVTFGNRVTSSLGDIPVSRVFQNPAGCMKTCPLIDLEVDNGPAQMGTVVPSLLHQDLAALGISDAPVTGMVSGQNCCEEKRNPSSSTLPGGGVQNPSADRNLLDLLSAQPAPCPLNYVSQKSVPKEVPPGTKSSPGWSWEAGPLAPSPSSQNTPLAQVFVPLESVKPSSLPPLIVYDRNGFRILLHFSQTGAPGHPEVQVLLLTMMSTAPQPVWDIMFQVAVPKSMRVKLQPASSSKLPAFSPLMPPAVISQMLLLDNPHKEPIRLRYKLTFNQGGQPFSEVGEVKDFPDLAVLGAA

How the values were obtained:
[1] = target: EGFR (endogenous, ARPE-19 cells) (human (endogenous in ARPE-19)) (UniProt P00533); assay: proximity ligation; Duolink In Situ PLA on fixed ARPE-19 cells with mouse anti-GGA2 and rabbit anti-EGFR or rabbit anti-CIMPR; cells transfected with siCtrl, siGGA2, siEGFR, siGGA1 or siGGA3
[2] = target: CIMPR (endogenous, ARPE-19 cells) (human (endogenous in ARPE-19)) (UniProt P11717); assay: as above

With “GGA2 (endogenous, ARPE-19 cells) (from UniProt Q9UJY4 1-613)” the binding [1] was “binds” and the binding [2] was “binds”.
